The nature of the data set: Reaction with GSH, DI-MS analysis. Particulars: 3 mM compound + 3 mM GSH in PBS, pH 7.4 or 4.0, overnight at 37 °C. As for the experimental part:
To this end, 8, 9, and 11 were incubated with GSH in 0.1 mL phosphate-buffered saline (PBS) overnight; then, these solutions underwent direct-infusion mass spectrometric analyses (DI-MS).
The standard reaction mixture consisted of 3 mM 8, 9, and 11 in 0.1 mL PBS, pH 7.4 or 4.0; the reaction was started with the addition of 3 mM GSH, overnight at 37 ° C. Reaction mixtures, diluted at 1:100 in methanol, were analyzed in direct-infusion mode and negative polarity with an AB Sciex QTrap 4500 (Concord, ON, Canada) mass spectrometer. The experimental conditions were as follows: ion spray voltage—4500 kV; temperature—100 °C; curtain gas (nitrogen) pressure—30 PSI; declustering potential—60 V; entrance potential—10 V. Mass spectra were acquired with Analyst 1.6.3 software (AB Sciex, Concord, ON, Canada).
On to `CC(=O)N[C@@H](CSC1=CC(=O)c2ccccc2C1=O)C(=O)O` [Compound 8, N-acetyl-S-(1,4-dioxo-1,4-dihydronaphthalen-2-yl)-L-cysteine], for which the “reactivity with glutathione (adduct formation, DI-MS)” value is recorded as “reacted with GSH”. The entry for `CC(=O)N[C@@H](CSC1=C(C)C(=O)c2ccccc2C1=O)C(=O)O` [Compound 9, N-acetyl-S-(3-methyl-1,4-dioxo-1,4-dihydronaphthalen-2-yl)-L-cysteine] is “did not seem to react with GSH”; for `CC(=O)N[C@@H](CSC1=CC(=O)c2c(O)cccc2C1=O)C(=O)O` [Compound 11, N-acetyl-S-(5-hydroxy-1,4-dioxo-1,4-dihydronaphthalen-2-yl)-L-cysteine] it is “reacted with GSH”.
